We go through one molecule from PMC7339498.

The chains behind the UniProt entries cited, without tags or fusion partners.
UniProt P46937: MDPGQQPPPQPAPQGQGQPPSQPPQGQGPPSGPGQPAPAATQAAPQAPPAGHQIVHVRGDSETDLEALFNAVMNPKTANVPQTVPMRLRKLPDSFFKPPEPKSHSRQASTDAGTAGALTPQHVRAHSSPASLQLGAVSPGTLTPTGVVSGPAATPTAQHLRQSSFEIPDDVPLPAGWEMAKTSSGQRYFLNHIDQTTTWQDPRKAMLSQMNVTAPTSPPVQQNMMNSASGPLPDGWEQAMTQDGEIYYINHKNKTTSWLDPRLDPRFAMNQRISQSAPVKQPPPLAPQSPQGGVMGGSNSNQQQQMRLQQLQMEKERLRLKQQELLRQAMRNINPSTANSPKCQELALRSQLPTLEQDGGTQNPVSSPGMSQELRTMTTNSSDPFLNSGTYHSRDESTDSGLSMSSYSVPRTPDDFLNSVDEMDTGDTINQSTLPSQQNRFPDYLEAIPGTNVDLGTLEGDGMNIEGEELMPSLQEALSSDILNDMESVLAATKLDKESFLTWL

These are yes or no findings as the source states them, for the method shown. Binding seen in cells or lysates may run through a third protein. Some results given as binding are weak or reduced against the parent protein; the word gives no strength.

Assay [1] has as its target phospho-YAP (S127) (human (endogenous in BT549)) (UniProt P46937). The assay is described as follows: co-IP; endogenous proteins; BT549 cells harvested with RIPA lysis buffer; antibody as indicated in the figure.
The target in assay [2] is Yes-associated protein (YAP) (human (endogenous in MDAMB231 or HEK293T)) (UniProt P46937). The assay is described as follows: co-IP; endogenous proteins; cells (MDAMB231 in the text, HEK293T in the legend) harvested with RIPA lysis buffer; antibody as indicated in the figure.

B1: Ring finger protein 181 (RNF181) (protein, UniProt Q9P0P0 1-153)
chain: MASYFDEHDCEPSDPEQETRTNMLLELARSLFNRMDFEDLGLVVDWDHHLPPPAAKTVVENLPRTVIRGSQAELKCPVCLLEFEEEETAIEMPCHHLFHSSCILPWLSKTNSCPLCRYELPTDDDTYEEHRRDKARKQQQQHRLENLHGAMYT
Turning to B1, the binding result in assay [1] and in assay [2] was “binds” each time.
